These are yes or no findings as the source states them, for the method shown. In cells and extracts the contact can be indirect. Binding calls can cover weak binding; strength is not graded here.
Target: T1, STT-3::mCherry (C. elegans) (UniProt P46975)
T1 sequence: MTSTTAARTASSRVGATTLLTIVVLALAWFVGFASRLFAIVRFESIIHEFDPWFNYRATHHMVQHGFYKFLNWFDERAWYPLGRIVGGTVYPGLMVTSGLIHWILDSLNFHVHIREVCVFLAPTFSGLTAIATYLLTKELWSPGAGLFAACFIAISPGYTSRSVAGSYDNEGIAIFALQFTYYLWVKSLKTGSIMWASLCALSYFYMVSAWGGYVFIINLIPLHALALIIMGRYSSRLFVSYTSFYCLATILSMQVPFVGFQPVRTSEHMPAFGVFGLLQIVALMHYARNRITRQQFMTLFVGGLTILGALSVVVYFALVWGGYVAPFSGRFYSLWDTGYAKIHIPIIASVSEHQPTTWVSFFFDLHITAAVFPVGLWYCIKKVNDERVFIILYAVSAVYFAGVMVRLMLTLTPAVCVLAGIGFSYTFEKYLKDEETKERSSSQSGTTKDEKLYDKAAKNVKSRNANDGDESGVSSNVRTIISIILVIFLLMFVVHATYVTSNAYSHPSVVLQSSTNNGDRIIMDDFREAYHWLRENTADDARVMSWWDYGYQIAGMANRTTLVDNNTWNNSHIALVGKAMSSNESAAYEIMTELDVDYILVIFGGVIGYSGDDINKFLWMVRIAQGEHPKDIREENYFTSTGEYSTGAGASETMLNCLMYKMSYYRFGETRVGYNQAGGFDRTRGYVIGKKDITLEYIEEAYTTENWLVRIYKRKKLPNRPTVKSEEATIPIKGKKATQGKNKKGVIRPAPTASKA
Assay: co-IP

Amino acid sequences for entries named in this document (tags omitted). A change or cut given only in a name is not applied to a line headed by its entry.
UniProt Q20118: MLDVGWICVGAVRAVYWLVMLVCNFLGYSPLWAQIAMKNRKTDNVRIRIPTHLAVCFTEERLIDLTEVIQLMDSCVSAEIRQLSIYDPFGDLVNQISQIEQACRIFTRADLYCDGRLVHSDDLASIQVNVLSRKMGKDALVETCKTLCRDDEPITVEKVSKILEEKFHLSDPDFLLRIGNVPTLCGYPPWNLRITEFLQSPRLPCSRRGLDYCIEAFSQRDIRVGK

- binding: binds
Substance: GFP::NUS-1 (from UniProt Q20118)

Reference: doi:10.64898/2025.12.25.696488
